The results are deposited in PubChem (AID1053133; Broad Institute, 2014).

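Vaccinia-infected cells with a two-color viral stage reporter; Venus fluorescence read on a plate reader; the cell line is not named here; timing not stated here.
The test concentration is not given here.
Percent change in Venus reporter signal; lower (more negative) values mean stronger inhibition of that viral stage.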

Values are in %.
How 0% and 100% were set is not given here.
Common to all entries: measured here: Venus reporter, other viral stage.
Part of the compounds only, not a random draw; the main read-out is not listed here.

| # | structure | activity change (Venus) (%) |
|---|---|---|
| 1 | `C[C@@H]1CCCCO[C@@H](CN(C)Cc2ccc(Cl)c(Cl)c2)[C@H](C)CN([C@H](C)CO)C(=O)c2cc(NC(=O)CCC(F)(F)F)ccc2O1` | -73.35 |
| 2 | `C[C@H](CO)N1C[C@H](C)[C@@H](CN(C)Cc2ccc(Cl)c(Cl)c2)OCCCC[C@H](C)Oc2ccc(NS(=O)(=O)c3ccc(F)cc3)cc2C1=O` | -29.09 |
| 3 | `COc1ccc(C#Cc2ccc([C@H]3[C@H](CO)N4CCCCN(C(=O)Nc5ccccc5F)C[C@@H]34)cc2)cc1` | -38.39 |
| 4 | `Cc1ccc(S(=O)(=O)Nc2ccc3c(c2)C(=O)N([C@@H](C)CO)C[C@@H](C)[C@H](CN(C)Cc2ccc4c(c2)OCO4)OCCCC[C@H](C)O3)cc1` | -65.55 |
| 5 | `COc1ccc(NC(=O)N(C)C[C@@H]2Oc3ncc(C#Cc4ccccc4)cc3C(=O)N([C@H](C)CO)C[C@@H]2C)cc1` | -40.82 |
| 6 | `O=C(Cc1cccnc1)N1CCCCN2[C@H](CO)[C@H](c3ccc(/C=C/c4ccccc4)cc3)[C@H]2C1` | -44.57 |
| 7 | `CC(C)C#Cc1ccc2c(c1)O[C@@H](CN(C)Cc1ccccn1)[C@H](C)CN([C@@H](C)CO)S2(=O)=O` | -31.89 |
| 8 | `C[C@@H]1CN([C@@H](C)CO)S(=O)(=O)c2ccc(C#Cc3ccccc3F)cc2O[C@H]1CN(C)C(=O)Cc1ccccc1` | -29.79 |
| 9 | `CCC(=O)N(C)C[C@H]1[C@@H](c2ccc(-c3ccc(F)cc3)cc2)[C@@H](CO)N1C(C)=O` | -25.58 |
| 10 | `COc1ccccc1S(=O)(=O)N(C)C[C@H]1Oc2cc(Br)ccc2S(=O)(=O)N([C@@H](C)CO)C[C@H]1C` | -23.61 |
| 11 | `C[C@H]1CN([C@@H](C)CO)C(=O)Cc2cc(NC(=O)Nc3ccc(C(F)(F)F)cc3)ccc2O[C@H]1CN(C)Cc1ccccc1` | -48.81 |
| 12 | `C[C@H](CO)N1C[C@H](C)[C@H](CN(C)C)Oc2cc(C#Cc3cccc(F)c3)ccc2S1(=O)=O` | -34.96 |
| 13 | `COc1ccc2c3c(n(C)c2c1)[C@H](CO)N(C(=O)Nc1ccc(F)cc1)CC31CCN(C(=O)c2ccc3c(c2)OCO3)CC1` | -26.55 |
| 14 | `C[C@@H]1CN([C@@H](C)CO)S(=O)(=O)c2ccc(C3=CCCC3)cc2O[C@@H]1CN(C)C(=O)Nc1ccc2c(c1)OCO2` | -46.49 |
| 15 | `C[C@H](CO)N1C[C@H](C)[C@@H](CN(C)C(=O)c2ccc3c(c2)OCO3)Oc2ncc(C#Cc3ccccc3F)cc2C1=O` | -39.53 |
| 16 | `O=C(Nc1ccc2c(c1)[C@H]1C[C@@H](CC(=O)N3CCc4ccccc4C3)O[C@H](CO)[C@H]1O2)c1ccc2c(c1)OCO2` | -50.96 |
| 17 | `C[C@@H]1CN([C@@H](C)CO)C(=O)c2cccc(NC(=O)Nc3ccc(C(F)(F)F)cc3)c2O[C@@H]1CN(C)C(=O)Nc1ccc(C(F)(F)F)cc1` | -57.74 |
| 18 | `O=C(Nc1ccccc1)N1CC(=O)N2[C@@H](CO)[C@@H](c3ccc(C#CC4CCCC4)cc3)[C@@H]2C1` | -24.52 |
| 19 | `COc1ccc(C#Cc2ccc3c(c2)O[C@@H](CN(C)C)[C@@H](C)CN([C@H](C)CO)S3(=O)=O)cc1` | -37.42 |
| 20 | `COc1ccccc1-c1ccc([C@@H]2[C@@H](CO)N3CCCCN(C(=O)NC4CCCC4)C[C@H]23)cc1` | -41.38 |
| 21 | `CC(C)NC[C@@H]1[C@H](c2ccc(C3=CCCCC3)cc2)[C@H](CO)N1C(=O)NC(C)C` | -55.01 |
| 22 | `C[C@@H]1CN([C@@H](C)CO)C(=O)c2cc(C#Cc3cccc(F)c3)cnc2O[C@H]1CN(C)CC1CCCC1` | -57.43 |
| 23 | `C[C@@H]1CN([C@H](C)CO)C(=O)c2cc(NS(=O)(=O)c3ccccc3)ccc2O[C@@H](C)CCCCO[C@H]1CN(C)Cc1ccc(Cl)c(Cl)c1` | -76.2 |
| 24 | `CN1C(=O)c2cc(NC(=O)c3ccc(C(F)(F)F)cc3)ccc2OC[C@@H]2O[C@H](CC(=O)NCc3ccc4c(c3)OCO4)CC[C@H]21` | -22.54 |
| 25 | `O=C(C1CCCC1)N1C[C@@H]2N[C@H](C1)C2c1ccc(-c2cccc(F)c2)cc1` (stereo partly shown) | -80.67 |
| 26 | `O=C(NC1CCCC1)N1CC2(C1)[C@@H](c1ccccc1)[C@@H](CO)N2CC1CCCC1` | -25.67 |
| 27 | `C[C@H](CO)N1C[C@H](C)[C@@H](CN(C)C(=O)Nc2ccccc2)Oc2c(NC(=O)Nc3ccc(C(F)(F)F)cc3)cccc2C1=O` | -46.15 |
| 28 | `COCC(=O)N1CCCCN2[C@H](C1)[C@H](c1ccc(C#Cc3ccc(OC)cc3)cc1)[C@@H]2CO` | -68.69 |
| 29 | `O=C(Nc1cc(F)ccc1F)N1CC(=O)N2[C@H](CO)[C@@H](c3ccc(C#CC4CCCC4)cc3)[C@@H]2C1` | -39.13 |
| 30 | `CCS(=O)(=O)N1CC(=O)N2[C@H](CO)[C@@H](c3ccc(C#Cc4cccc(F)c4)cc3)[C@@H]2C1` | -62.09 |
| 31 | `C[C@H](CO)N1C[C@H](C)[C@H](CN(C)S(=O)(=O)c2ccc(F)cc2)Oc2ccc(NC(=O)Nc3ccc(F)cc3)cc2CC1=O` | -32.61 |

Once more, the final 4:

structure	activity change (Venus) (%)
COCC(=O)N1CCCCN2[C@H](C1)[C@H](c1ccc(C#Cc3ccc(OC)cc3)cc1)[C@@H]2CO	-68.69
O=C(Nc1cc(F)ccc1F)N1CC(=O)N2[C@H](CO)[C@@H](c3ccc(C#CC4CCCC4)cc3)[C@@H]2C1	-39.13
CCS(=O)(=O)N1CC(=O)N2[C@H](CO)[C@@H](c3ccc(C#Cc4cccc(F)c4)cc3)[C@@H]2C1	-62.09
C[C@H](CO)N1C[C@H](C)[C@H](CN(C)S(=O)(=O)c2ccc(F)cc2)Oc2ccc(NC(=O)Nc3ccc(F)cc3)cc2CC1=O	-32.61